Test results: the supplement of paper PMC12889115
The list shows a part of the results. These are raw signals, not scaled to a control.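 In the initial screen, polymyxin B was used at a concentration that permeabilizes Salmonella's outer membrane but not its inner membrane. Maximum growth was set by DMSO wells with or without polymyxin B. Since plates varied, data were ranked per plate, and compounds giving the lowest OD600 advanced as hits.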

Test system: Salmonella enterica serovar Typhimurium SL1344
Test: bacterial growth OD600 after 18 h with compound and polymyxin B; higher = more bacterial growth (less inhibition)
Conditions: 50 µM, Mueller-Hinton broth

| SMILES | bacterial growth OD600 (polymyxin B 0.75 µg/mL) | bacterial growth OD600 (polymyxin B 1 µg/mL) |
| --- | --- | --- |
| COc1ccc(F)c(CN2CCC(C(Cc3ccc(F)cc3F)N(C)C(=O)c3ccco3)CC2)c1 (configuration not stated) | 0.66 | – |
| Cc1nc(N(C)C2CCCCC2)ncc1C(C)NC(=O)CCc1cccnc1 (configuration not stated) | 0.925 | – |
| CCOc1ccc2nc(N3CCCN(Cc4cccc(C(C)=O)c4)CC3)nc(C)c2c1 | 0.866 | – |
| O=C(C1CCC1)N1CCCC(CCc2ccccc2)C1 (configuration not stated) | 0.505 | – |
| Cc1nc2ccccc2n1Cc1cc(C(=O)N(C)Cc2cccnc2)n[nH]1 | – | 0.984 |
| Cc1cc(C)nc(CCNc2nncc(-c3ccccc3C)n2)n1 | – | 1.03 |
| O=C(c1ccoc1)N1CCc2[nH]nc(C(c3ccccc3)c3ccccc3)c2C1 | 0.548 | – |
| O=C(c1cccc(Cl)c1F)N1CCCC(CO)(Cc2ccc(F)cc2)C1 (configuration not stated) | – | 0.009 |
| CCCCN(C)C(=O)C1CCN(c2nc(C)c3ccccc3n2)CC1 | 0.884 | – |
| O=C(NCC1CCCN(S(=O)(=O)c2ccc(F)cc2Cl)C1)c1ccco1 (configuration not stated) | 0.675 | – |
| COCC(=O)Nc1cc(C(=O)NCC2(c3ccccc3)CCCC2)c2c(c1)nc(-c1ccncc1)n2C | 0.871 | – |
| O=C(C1CCC1)N1CCC(n2c(-c3ccc4c(c3)OCO4)nc3cc(C(F)(F)F)ccc32)CC1 | 0.559 | – |
| Cc1ccccc1CN1CCC(CN(CC2CCCO2)C(=O)c2snnc2C)CC1 (configuration not stated) | – | 0.879 |
| CCOC(=O)CCNC(=O)NC(C)c1cnn(-c2ccccn2)c1C (configuration not stated) | 0.875 | – |
| CCOC(=O)C1(Cc2ccccc2F)CCCN(Cc2cccc(C)n2)C1 (configuration not stated) | 0.797 | – |
| COc1ccc(CCCN2C(=O)O[C@@H]3CN(c4ncccc4Cl)C[C@@H]32)cc1 | 0.184 | – |

Among those listed so far, three contain a furan ring, fused or not:

| SMILES | bacterial growth OD600 (polymyxin B 0.75 µg/mL) | bacterial growth OD600 (polymyxin B 1 µg/mL) |
| --- | --- | --- |
| COc1ccc(F)c(CN2CCC(C(Cc3ccc(F)cc3F)N(C)C(=O)c3ccco3)CC2)c1 (configuration not stated) | 0.66 | – |
| O=C(c1ccoc1)N1CCc2[nH]nc(C(c3ccccc3)c3ccccc3)c2C1 | 0.548 | – |
| O=C(NCC1CCCN(S(=O)(=O)c2ccc(F)cc2Cl)C1)c1ccco1 (configuration not stated) | 0.675 | – |

Remaining list, next part

| SMILES | bacterial growth OD600 (polymyxin B 0.75 µg/mL) | bacterial growth OD600 (polymyxin B 1 µg/mL) |
| --- | --- | --- |
| CCN(Cc1ccccc1)C(=O)C1CCCN(C2CCN(C(=O)C3CC3)CC2)C1 (configuration not stated) | – | 0.877 |
| CCN1CCN(C(=O)CCc2nnc(Cc3ccc(-c4ccccc4)cc3)o2)[C@@H](C)C1=O | – | 0.94 |
| COc1ccc(C(=O)NC2CC2)cc1OC1CCN(Cc2nc3ccccc3[nH]2)CC1 | – | 0.929 |
| COCC(C)Nc1ccc(-c2nc(COc3ccccc3)no2)cn1 (configuration not stated) | – | 0.715 |
| CN1CCC(Oc2ccc(C(=O)NC3CCCC3)cc2Cl)CC1 | – | 1.1 |
| Cc1ncc2c(c1CNC(=O)Cc1cccs1)CCN(C(=O)/C=C/c1cc(F)cc(F)c1)C2 | 0.756 | – |
| CCOC(=O)C1(Cc2ccc(F)cc2F)CCCN(Cc2cnc(N(C)C)s2)C1 (configuration not stated) | – | 0.994 |
| COc1cccc(C(=O)NCC2CCCN(CCCC3CCCC3)C2)c1OC (configuration not stated) | 0.757 | – |
| Cc1ccccc1-c1noc(-c2ccc(N(C)CCc3cn[nH]c3)nc2)n1 | 0.302 | – |
| CCC(C)C(=O)NCC1Cc2cc(C)cc(-c3ccccn3)c2O1 (configuration not stated) | 0.934 | – |
| Cc1nc2cc(NC(=O)C3CC34CCN(C(=O)c3cccc(Cn5cccn5)c3)CC4)ccc2s1 (configuration not stated) | 0.849 | – |
| COc1ccc(CCN2CC(C(=O)NCCN3CCCC3=O)CCC2=O)cc1 (configuration not stated) | – | 0.913 |
| Cc1n[nH]c(C)c1C(C)NC(=O)c1ccc2oc(-c3cccc(F)c3)nc2c1 (configuration not stated) | 0.617 | – |
| O=C(CC(c1cccc(O)c1)c1ccccc1Cl)N[C@H]1CC[C@H](O)CC1 (some centres not stated) | – | 0.807 |
| COC(=O)c1ccccc1C(=O)N1CCCC(Nc2ccc(F)c(F)c2)C1 (configuration not stated) | – | 0.746 |
| CCOc1ccc2nc(N3CCC(N4CCC[C@H]4C(=O)OC)CC3)nc(C)c2c1 | 0.821 | – |
